Paper PMC10776482
No constants are given. Whether binding was seen depends on the method and setting. In cells and extracts the contact can be indirect. Some binding calls cover weakened binding; strength is not graded here. Where a sequence is shown, tags or fusion partners need not be part of it.

How the values were obtained:
Experiment in all cases: co-IP; GFP-Trap beads with lysates of HEK293T cells transfected with EGFP-NDEL1 WT or variants (24 h); 4 °C, 15-18 h, six washes; co-precipitated LIS1 detected by western blot
[1] = molecular target: T1, EGFP-tagged NDEL1 p.R105Q variant (mouse Ndel1 cDNA) (mouse) (UniProt Q9ERR1)
T1 sequence: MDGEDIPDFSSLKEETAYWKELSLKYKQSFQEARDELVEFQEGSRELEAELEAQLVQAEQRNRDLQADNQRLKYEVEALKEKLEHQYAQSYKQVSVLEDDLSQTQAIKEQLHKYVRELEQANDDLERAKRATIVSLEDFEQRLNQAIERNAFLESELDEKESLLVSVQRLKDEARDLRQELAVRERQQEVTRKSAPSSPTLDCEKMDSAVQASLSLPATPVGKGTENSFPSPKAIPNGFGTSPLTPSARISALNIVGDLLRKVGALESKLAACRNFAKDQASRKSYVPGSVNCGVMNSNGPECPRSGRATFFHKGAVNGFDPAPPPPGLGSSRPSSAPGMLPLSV

[2] = molecular target: T2, EGFP-tagged NDEL1 p.R105W variant (mouse Ndel1 cDNA) (mouse) (UniProt Q9ERR1)
T2 sequence: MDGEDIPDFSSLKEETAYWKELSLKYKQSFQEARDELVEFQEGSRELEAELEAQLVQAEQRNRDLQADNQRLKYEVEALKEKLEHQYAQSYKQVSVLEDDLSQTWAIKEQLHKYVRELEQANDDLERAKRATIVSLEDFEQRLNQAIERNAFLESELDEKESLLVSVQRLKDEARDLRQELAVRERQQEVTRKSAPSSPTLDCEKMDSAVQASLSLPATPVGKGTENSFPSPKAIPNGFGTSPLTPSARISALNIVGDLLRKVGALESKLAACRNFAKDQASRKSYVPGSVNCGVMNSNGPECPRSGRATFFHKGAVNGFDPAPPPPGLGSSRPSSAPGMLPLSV

[3] = molecular target: T3, EGFP-tagged NDEL1 (wild type, mouse Ndel1 cDNA) (mouse) (UniProt Q9ERR1)
T3 sequence: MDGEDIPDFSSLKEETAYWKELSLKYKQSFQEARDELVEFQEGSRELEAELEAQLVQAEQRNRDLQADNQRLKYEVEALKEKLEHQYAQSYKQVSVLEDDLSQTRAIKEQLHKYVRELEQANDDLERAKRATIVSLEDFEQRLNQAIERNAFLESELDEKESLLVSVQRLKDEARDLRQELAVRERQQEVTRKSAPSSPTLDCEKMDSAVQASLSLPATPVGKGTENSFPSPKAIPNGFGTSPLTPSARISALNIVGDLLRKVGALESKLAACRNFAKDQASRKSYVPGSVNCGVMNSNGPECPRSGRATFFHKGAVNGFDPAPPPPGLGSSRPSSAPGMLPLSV

- binding [1]: binds
- binding [2]: binds
- binding [3]: binds
B1: LIS1 (protein, UniProt P43034 1-410)
chain: MVLSQRQRDELNRAIADYLRSNGYEEAYSVFKKEAELDVNEELDKKYAGLLEKKWTSVIRLQKKVMELESKLNEAKEEFTSGGPLGQKRDPKEWIPRPPEKYALSGHRSPVTRVIFHPVFSVMVSASEDATIKVWDYETGDFERTLKGHTDSVQDISFDHSGKLLASCSADMTIKLWDFQGFECIRTMHGHDHNVSSVAIMPNGDHIVSASRDKTIKMWEVQTGYCVKTFTGHREWVRMVRPNQDGTLIASCSNDQTVRVWVVATKECKAELREHEHVVECISWAPESSYSSISEATGSETKKSGKPGPFLLSGSRDKTIKMWDVSTGMCLMTLVGHDNWVRGVLFHSGGKFILSCADDKTLRVWDYKNKRCMKTLNAHEHFVTSLDFHKTAPYVVTGSVDQTVKVWECR
